PubChem BioAssay AID1259275, Sanger Institute, 2017
The whole screen tested 794 reagents; below is a random part of them. In the full data, 13 (1.6%) are marked active. 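Calls mark knock-downs lethal by themselves, not drug synergy; drugs went in a day after transfection, with DMSO as vehicle.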 Entries without a mark were called inactive. No viability above 1 is reported: the scale is capped. Not stated in the record: the amount of reagent, the time to read-out.

- Screen: 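Kinome and custom colorectal gene library screened for lethal knock-downs and drug partners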 (primary screen)
- Cells: COLO320HSR human colorectal cancer cells
- Reagents: siRNA pool against human genes
- Conditions: anchor drug added one day after transfection: BYL719 at 1 µM, cetuximab at 5 µg/ml or trametinib at 10 nM; DMSO as vehicle arm
- Detection: 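Viability averaged over replicates as a fraction of the non-targeting pool, a robust z-score for knock-down alone, and synergy scores with BYL719 (1 µM), cetuximab (5 µg/ml) or trametinib (10 nM)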
- Scale: robust z-score, siRNA alone: higher = more viable cells; strongly negative means essential; viability, knock-down alone (DMSO): higher = more viable cells; synergy score with BYL719 and synergy score with cetuximab and synergy score with trametinib: higher = stronger combined killing with drug
- Rule for the call: 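Essential means the knock-down by itself gives a robust z-score lower than -3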
- Meaning of the calls: active = essential (siRNA alone); inactive = no change (siRNA alone)

| Gene | robust z-score, siRNA alone | viability, knock-down alone (DMSO) (fraction of control) | synergy score with BYL719 | synergy score with cetuximab | synergy score with trametinib |
| --- | --- | --- | --- | --- | --- |
| AGK | 0.726 | 1 | -0.222 | -0.0893 | -0.0259 |
| TSSK4 | 0.314 | 0.963 | -0.136 | -0.123 | 0.00177 |
| GUK1 | -2.47 | 0.712 | -0.264 | -0.127 | -0.0547 |
| MYH10 | 0.27 | 0.959 | -0.0993 | -0.0261 | 0.064 |
| RIOK2 | 0.726 | 1 | -0.069 | -0.0893 | 0.0516 |
| MAPK7 | 0.726 | 1 | -0.296 | -0.0893 | -0.0259 |
| FGFR4 | 0.726 | 1 | -0.125 | -0.0893 | 0.0037 |
| DGKH | 0.677 | 0.996 | 0.0314 | -0.0344 | 0.0198 |
| TK2 | 0.708 | 0.998 | -0.00382 | 0.0328 | -0.0275 |
| DLG3 | 0.327 | 0.964 | -0.144 | -0.122 | -0.0512 |
| MPP2 | 0.726 | 1 | -0.145 | -0.0893 | -0.0259 |
| CSNK1G3 | 0.726 | 1 | -0.287 | -0.0893 | -0.0259 |
| ADCK5 | 0.726 | 1 | -0.02 | -0.0893 | -0.0111 |
| MAP4K5 | -0.776 | 0.864 | -0.27 | -0.131 | -0.0896 |
| MLKL | 0.169 | 0.95 | -0.05 | -0.0538 | -0.00462 |
| EPHB1 | 0.255 | 0.957 | -0.2 | -0.128 | -0.0674 |
| DGKD | 0.171 | 0.95 | -0.108 | -0.133 | -0.0213 |
| PRKACG | -0.933 | 0.85 | -0.122 | -0.179 | -0.0517 |
| BCR | -1.12 | 0.833 | -0.0622 | -0.147 | -0.114 |
| FXR1 | 0.726 | 1 | -0.296 | -0.0893 | -0.0259 |
